Molecules are shown by their SMILES. The list shows a part of the results. Single values are uncertain, as repeats are few or missing.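 The assay uses human stem cell-derived hepatocyte-like cells whose DGUOK gene was disrupted by CRISPR, modeling liver mtDNA depletion syndrome. ATP signals were scored within each plate, and any drug with a score of at least 3 was called a primary hit.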

The experiment has as its system DGUOK Δ14/Δ5 iPSC-derived hepatocyte-like cells (SV20). Kind of experiment: ATP level (CellTiter-Glo luminescence) Z score relative to plate distribution, under 2-DG glycolysis block; higher = more cellular ATP (rescue of mitochondrial ATP production). As to conditions: 5 µM; treatment time: day 15 to day 20 of differentiation (5 days); 2-deoxy-D-glucose: 20 mM for 24 h before assay.
As to `Cc1ccsc1/C=C/C1=NCCCN1C`, the ATP level was inactive: 0.785.

On to `COc1cc(C=CC(=O)O)cc(OC)c1O`, for which the ATP level was inactive: 0.75.

With `COc1cc(OC)c2c(=O)c(-c3ccc4c(c3)OCO4)coc2c1`, the ATP level was inactive: 0.333.

For `Nc1nc(NC2CC2)c2ncn([C@H]3C=C[C@@H](CO)C3)c2n1`, the ATP level was inactive: 0.606.

As for `CCN(CC)CCNc1ccc(CO)c2sc3ccccc3c(=O)c12`, the ATP level is inactive: -34.6.

In the case of `CCOc1ccc2nc3cc(N)ccc3c(N)c2c1`, the ATP level was inactive: -11.6.

`O=c1c(O)cc([C@H]2Oc3cc(O)cc(O)c3C[C@H]2O)cc2c([C@H]3Oc4cc(O)cc(O)c4C[C@H]3O)cc(O)c(O)c12`: the ATP level was inactive: 1.86.

For the compound `N[C@@H](Cc1ccc(O)cc1)C(=O)O`, the ATP level is inactive: 1.21.

As for `O=C(COc1ccc(Cl)cc1)N1CCN(Cc2ccc3c(c2)OCO3)CC1`, the ATP level is inactive: -0.518.

Regarding `CC(C)(C)CC(C)(C)c1ccc(O)c(Cc2ccc(Cl)cc2Cl)c1`, the ATP level was inactive: -1.09.

Regarding `C[C@H]1[C@H](C)CC[C@]2(C(=O)O)CC[C@]3(C)C(=CC[C@@H]4[C@@]5(C)C[C@@H](O)[C@H](O)[C@@](C)(CO)[C@@H]5CC[C@]43C)[C@H]12`, the ATP level is inactive: -2.07.

Take `CCN(CC)CCOC(=O)C(c1ccccc1)c1ccccc1`: the ATP level was inactive: -26.6.

Turning to `C[C@]12CC[C@@H]3c4ccc(OS(=O)(=O)O)cc4CC[C@H]3[C@@H]1CCC2=O`, the ATP level is inactive: 0.9.

Consider `CC(C)CCCC(C)C1CCC2C3=CCC4CC(O)CCC4(C)C3CCC21C` (stereo unspecified), for which the ATP level is inactive: 0.787.

In the case of `Cc1ccc(S(=O)(=O)NC(=O)NN2CCCCCC2)cc1`, the ATP level is inactive: 2.83.

In the case of `COc1cccc(OC)c1C(=O)N[C@@H]1C(=O)N2[C@@H]1SC(C)(C)[C@@H]2C(=O)O`, the ATP level is inactive: 0.829.

Take `COc1cc(NC(C)CCCN)c2ncccc2c1` (stereo unspecified): the ATP level was inactive: 1.8.

Take `CC1=C(/C=C/C(C)=C/C=C/C(C)=C\C(=O)O)C(C)(C)CCC1`: the ATP level is inactive: -14.8.

With `CC/C(=C(/CC)c1ccc(O)cc1)c1ccc(O)cc1`, the ATP level is inactive: -1.39.

With `COc1cc(O)c2c(=O)c(O)c(-c3ccccc3)oc2c1`, the ATP level is inactive: -0.783.

For the compound `CSc1ccc2c(c1)N(CCC1CCCCN1C)c1ccccc1S2` (stereo unspecified), the ATP level is inactive: -12.6.

`NC(N)=Nc1nc(CSCC/C(N)=N/S(N)(=O)=O)cs1`: the ATP level was inactive: 0.571.

`Cc1cc(-c2ccccc2)nnc1NCCN1CCOCC1`: the ATP level is inactive: -0.362.

`COC1(C)CCC2OC2(C)CCC2C1CC2(C)C` (stereo unspecified): the ATP level is inactive: 0.00805.

Take `CC(=O)NCCc1ccc(O)c(-c2c(O)c(O)c3c(c2O)C(=O)c2c(cc(O)c(C(=O)O)c2C(=O)O)C3=O)c1`: the ATP level was inactive: -0.219.

As to `COc1cc(O)c2c(=O)cc(-c3ccc(O)cc3)oc2c1`, the ATP level is inactive: 1.54.

`O=c1ccn([C@@H]2O[C@H](COP(=O)(O)OP(=O)(O)OP(=O)(O)O)[C@@H](O)[C@H]2O)c(=O)[nH]1`: the ATP level was inactive: -0.468.

As for `Cc1nc(-c2ccc(OCC(C)C)c(C#N)c2)sc1C(=O)O`, the ATP level is inactive: 2.05.

As to `CN(C)c1ccc(C(=C2C=CC(=[N+](C)C)C=C2)c2ccc(N(C)C)cc2)cc1`, the ATP level was inactive: -12.1.

Take `CC(=O)[C@H]1CC[C@H]2[C@@H]3CC=C4C[C@@H](O)CC[C@]4(C)[C@H]3CC[C@]12C`: the ATP level was inactive: -0.947.

As to `COc1ccc(CC2c3cc(OC)c(OC)cc3CC[N+]2(C)CCC(=O)OCCCCCOC(=O)CC[N+]2(C)CCc3cc(OC)c(OC)cc3C2Cc2ccc(OC)c(OC)c2)cc1OC` (stereo unspecified), the ATP level was inactive: 1.42.

Regarding `CCN(CCO)CCCC(C)Nc1ccnc2cc(Cl)ccc12` (stereo unspecified), the ATP level is inactive: -3.64.

As for `CON`, the ATP level is inactive: 1.62.

With `CC1(C)[C@@H](O)CC[C@]2(C)[C@H]3C(=O)C=C4[C@H]5C[C@@](C)(C(=O)O)CC[C@]5(C)CC[C@@]4(C)[C@]3(C)CC[C@@H]12` [18alpha-GLYCYRRHETINIC ACID], the ATP level was inactive: -1.16.

In the case of `CCOC(=O)NNc1nncc2ccccc12`, the ATP level was inactive: -6.5.

With `CO/N=C1\C[C@]2(C[C@@H]3C[C@@H](C/C=C(\C)C[C@@H](C)/C=C/C=C4\CO[C@@H]5[C@H](O)C(C)=C[C@@H](C(=O)O3)[C@]45O)O2)O[C@H](/C(C)=C/C(C)C)[C@H]1C`, the ATP level was inactive: 1.15.

With `CCCCN1CCCCC1C(=O)Nc1c(C)cccc1C` (stereo unspecified), the ATP level is inactive: 1.1.

Turning to `CC(=O)O[C@@H]1CC2C(C)(CC[C@H](O)C2(C)C)C2CC[C@]3(C)C(=CC(=O)O[C@H]3c3ccoc3)C21C` (stereo partly drawn) [3beta-HYDROXYDEOXODIHYDRODEOXYGEDUNIN], the ATP level was inactive: -1.36.

`CC(=O)c1c(O)cc(O)cc1O`: the ATP level was inactive: -1.77.

As to `CC[C@@H](C(=O)[C@@H](C)[C@@H](O)[C@H](C)CCc1ccc(C)c(O)c1C(=O)O)[C@H]1O[C@](CC)([C@H]2CC[C@](O)(CC)[C@H](C)O2)C[C@@H]1C`, the ATP level is inactive: -36.8.

Consider `O=c1c(-c2cc(O)c(O)c(O)c2)coc2cc(O)c(O)c(O)c12`, for which the ATP level was inactive: 0.893.

Regarding `CC12CCCC(O)(C1)C1CC(C)(C)C1CC2` (stereo not drawn) [beta-CARYOPHYLLENE ALCOHOL], the ATP level was inactive: -1.76.

In the case of `Cc1cc(=O)oc2c(O)c(O)ccc12`, the ATP level was active: 3.14.

Regarding `CC(COc1ccccc1)NC(C)C(O)c1ccc(O)cc1` (stereo unspecified), the ATP level is inactive: 1.74.

Consider `Nc1ccc(S(=O)(=O)Nc2ccccn2)cc1`, for which the ATP level is inactive: 0.0111.

Consider `O=C(O)[C@H]1O[C@@H](Oc2cc3oc(-c4ccccc4)cc(=O)c3c(O)c2O)[C@H](O)[C@@H](O)[C@@H]1O`, for which the ATP level was inactive: -0.0254.

Take `OC[C@H]1O[C@H](OCC2O[C@@H](O)[C@H](O)[C@@H](O)[C@@H]2O)[C@H](O)[C@@H](O)[C@H]1O` (stereo partly specified): the ATP level is inactive: -0.157.

`Nc1ccn([C@@H]2O[C@H](CO)[C@@H](O)[C@@H]2O)c(=O)n1`: the ATP level was inactive: -1.54.

For `O=c1[nH]c(=O)c2ccccc2o1`, the ATP level was inactive: 2.3.

On to `COc1ccnc(C[S+]([O-])c2nc3cc(OC(F)F)ccc3[nH]2)c1OC` (stereo unspecified), for which the ATP level was inactive: 0.781.

Turning to `O=C(O)[C@H](O)[C@@](O)(Cc1ccc(O)cc1)C(=O)O`, the ATP level was inactive: 0.114.

On to `CC(=O)N[C@@H](C=O)[C@@H](O)[C@H](O)[C@H](O)CO`, for which the ATP level is inactive: -1.61.

Take `C[C@@H]1C[C@H]2[C@@H]3C[C@H](F)C4=CC(=O)C=C[C@]4(C)[C@@]3(F)[C@@H](O)C[C@]2(C)[C@@]1(O)C(=O)COC(=O)C(C)(C)C`: the ATP level was inactive: 1.39.

In the case of `O=C1C(=O)c2ccccc2C(O)=C1C1CCC(c2ccc(Cl)cc2)CC1` (stereo unspecified), the ATP level was inactive: 0.225.

In the case of `O=c1[nH]cnc2c1ncn2[C@@H]1O[C@H](CO)[C@@H](O)[C@H]1O`, the ATP level was inactive: -0.333.

On to `CC(C)Cn1c(=O)n(C)c(=O)c2[nH]cnc21`, for which the ATP level is inactive: 0.777.

With `COc1cc([C@@H]2c3cc4c(cc3[C@@H](O[C@@H]3O[C@@H]5CO[C@@H](c6cccs6)O[C@H]5[C@H](O)[C@H]3O)[C@H]3COC(=O)[C@H]23)OCO4)cc(OC)c1O`, the ATP level is active: 3.17.

On to `C/C(=C\CO)CC[C@H](C)CCC[C@H](C)CCCC(C)C`, for which the ATP level is inactive: -1.06.

For `NCCOB(c1ccccc1)c1ccccc1`, the ATP level is inactive: -0.952.

For the compound `CC1(C)C=Cc2cc3ccc(=O)oc3cc2O1`, the ATP level was inactive: 0.264.

For the compound `O=c1ccc2ccccc2o1`, the ATP level was inactive: -6.23.

`CCOC(=O)c1c(C)cc(O)cc1O`: the ATP level was inactive: 1.1.

Regarding `CN(C)CCCN1c2ccccc2Sc2ccc(Cl)cc21`, the ATP level was inactive: -11.6.

As to `COc1ccc(C(=O)c2ccccc2O)c(O)c1`, the ATP level is inactive: 0.096.

As to `CC(C)(C)NC[C@H](O)COc1ccccc1C1CCCC1`, the ATP level was inactive: -0.525.

In the case of `Nc1nc2[nH]cc(CCc3ccc(C(=O)N[C@@H](CCC(=O)O)C(=O)O)cc3)c2c(=O)[nH]1`, the ATP level was inactive: 0.529.

`COCCc1ccc(OCC(O)CNC(C)C)cc1` (stereo unspecified): the ATP level is inactive: 1.21.

`OCc1ccccn1`: the ATP level was inactive: 0.367.

For the compound `CC(C)Cc1ccc(C(C)C(=O)O)cc1` (stereo unspecified), the ATP level was inactive: 0.147.

For the compound `COc1ccc(CN2CCN(C(c3ccc(F)cc3)c3ccc(F)cc3)CC2)c(OC)c1OC`, the ATP level is inactive: -2.51.

Take `COc1cc(OC)c2c(=O)c(-c3ccccc3)c(C)oc2c1OC`: the ATP level was inactive: 0.614.

On to `Cc1cnc(C(=O)O)c[n+]1[O-]`, for which the ATP level is inactive: 1.46.

In the case of `CC(=O)Nc1cccc(O)c1`, the ATP level was inactive: 0.54.

Turning to `O=c1c(O)c(-c2ccc(O)c(O)c2)oc2cc(O)cc(O)c12`, the ATP level is inactive: 1.35.

With `O=C(O)C1(C(=O)O)CCC1.[NH2-].[NH2-].[Pt+2]`, the ATP level was inactive: 2.48.

In the case of `O=C(O)[C@H]1/C(=C/CO)O[C@@H]2CC(=O)N21`, the ATP level was inactive: -0.145.

With `CC1=C(C/C=C(\C)CCC[C@H](C)CCC[C@H](C)CCCC(C)C)C(=O)c2ccccc2C1=O`, the ATP level is inactive: -0.0998.

Regarding `CC1CCCC(C)N1` (stereo unspecified), the ATP level is inactive: -1.74.

With `Cc1ncc(COP(=O)([O-])[O-])c(CN(CCN(CC(=O)O)Cc2c(COP(=O)([O-])O)cnc(C)c2O)CC(=O)O)c1O.[Mn].[Na+].[Na+].[Na+]`, the ATP level was inactive: -2.63.

Consider `COc1cc(OC)c(-c2c(OC)cc(OC)cc2OC)c(OC)c1`, for which the ATP level is inactive: -0.618.

In the case of `CC(C)(C)NCC(O)c1cc(O)cc(O)c1` (stereo unspecified), the ATP level is inactive: 1.21.

With `COc1ccc2c(c1)O[C@@H]1COc3cc(OC)c(OC)cc3[C@@H]1C2=O`, the ATP level was inactive: -5.39.

Take `CC[N+](CC)(CC)CCOc1cccc(OCC[N+](CC)(CC)CC)c1OCC[N+](CC)(CC)CC`: the ATP level was inactive: 1.6.

In the case of `CCOC(=O)[N-]c1c[n+](N2CCOCC2)no1`, the ATP level is inactive: 1.43.

For `NCc1ccc(S(N)(=O)=O)cc1`, the ATP level is inactive: -0.945.

As to `CN[C@@H]1[C@H](O[C@H]2[C@H](O[C@H]3[C@H](O)[C@@H](O)[C@H](NC(=N)N)[C@@H](O)[C@@H]3NC(=N)N)O[C@@H](C)[C@]2(O)CO)O[C@@H](CO)[C@H](O)[C@H]1O`, the ATP level was inactive: 2.62.

The record behind these values is the supplement of paper PMC6289059.
